Results: patent publication US9949960B2, “Pharmaceutical composition for preventing or treating muscle weakness-related diseases, containing butylpyridinium or derivative thereof” (KOREA RESEARCH INSTITUTE OF BIOSCIENCE AND BIOTECHNOLOGY, priority 2014, dated 2018)

Legend:
[1] = test system: 20-month-old male C57BL/6 aged mice, immobilization model; conditions: oral, concentration-dependent, 20-month-old mice, tests 5 and 12 days after immobilization, compared to control group; FIG. 13
[2] = test system: 20-month-old C57BL/6 aged mice, immobilization model; conditions: 1.7 mg/kg (mouse) oral, 20-month-old mice, compared to control group; FIG. 14
[3] = test system: 6-month-old male MDX mice; conditions: 1.7 mg/kg (mouse) oral for 4 weeks, compared to control group; FIG. 15

CCCCCCCCCCCCCCCC[n+]1ccccc1 [cetylpyridinium chloride]
motor ability (treadmill) in aged mice [1]: improved | cross-sectional area of the muscle (TA) in aged mice [2]: increased | motor ability (rota-rod and treadmill tests) in MDX mice [3]: improved
